## Primary screen of a compound library

Protein sequences, listed by entry. Tags and fused reporters are not part of them. Residues count along the entry.
UniProt I6X8D2, whole entry: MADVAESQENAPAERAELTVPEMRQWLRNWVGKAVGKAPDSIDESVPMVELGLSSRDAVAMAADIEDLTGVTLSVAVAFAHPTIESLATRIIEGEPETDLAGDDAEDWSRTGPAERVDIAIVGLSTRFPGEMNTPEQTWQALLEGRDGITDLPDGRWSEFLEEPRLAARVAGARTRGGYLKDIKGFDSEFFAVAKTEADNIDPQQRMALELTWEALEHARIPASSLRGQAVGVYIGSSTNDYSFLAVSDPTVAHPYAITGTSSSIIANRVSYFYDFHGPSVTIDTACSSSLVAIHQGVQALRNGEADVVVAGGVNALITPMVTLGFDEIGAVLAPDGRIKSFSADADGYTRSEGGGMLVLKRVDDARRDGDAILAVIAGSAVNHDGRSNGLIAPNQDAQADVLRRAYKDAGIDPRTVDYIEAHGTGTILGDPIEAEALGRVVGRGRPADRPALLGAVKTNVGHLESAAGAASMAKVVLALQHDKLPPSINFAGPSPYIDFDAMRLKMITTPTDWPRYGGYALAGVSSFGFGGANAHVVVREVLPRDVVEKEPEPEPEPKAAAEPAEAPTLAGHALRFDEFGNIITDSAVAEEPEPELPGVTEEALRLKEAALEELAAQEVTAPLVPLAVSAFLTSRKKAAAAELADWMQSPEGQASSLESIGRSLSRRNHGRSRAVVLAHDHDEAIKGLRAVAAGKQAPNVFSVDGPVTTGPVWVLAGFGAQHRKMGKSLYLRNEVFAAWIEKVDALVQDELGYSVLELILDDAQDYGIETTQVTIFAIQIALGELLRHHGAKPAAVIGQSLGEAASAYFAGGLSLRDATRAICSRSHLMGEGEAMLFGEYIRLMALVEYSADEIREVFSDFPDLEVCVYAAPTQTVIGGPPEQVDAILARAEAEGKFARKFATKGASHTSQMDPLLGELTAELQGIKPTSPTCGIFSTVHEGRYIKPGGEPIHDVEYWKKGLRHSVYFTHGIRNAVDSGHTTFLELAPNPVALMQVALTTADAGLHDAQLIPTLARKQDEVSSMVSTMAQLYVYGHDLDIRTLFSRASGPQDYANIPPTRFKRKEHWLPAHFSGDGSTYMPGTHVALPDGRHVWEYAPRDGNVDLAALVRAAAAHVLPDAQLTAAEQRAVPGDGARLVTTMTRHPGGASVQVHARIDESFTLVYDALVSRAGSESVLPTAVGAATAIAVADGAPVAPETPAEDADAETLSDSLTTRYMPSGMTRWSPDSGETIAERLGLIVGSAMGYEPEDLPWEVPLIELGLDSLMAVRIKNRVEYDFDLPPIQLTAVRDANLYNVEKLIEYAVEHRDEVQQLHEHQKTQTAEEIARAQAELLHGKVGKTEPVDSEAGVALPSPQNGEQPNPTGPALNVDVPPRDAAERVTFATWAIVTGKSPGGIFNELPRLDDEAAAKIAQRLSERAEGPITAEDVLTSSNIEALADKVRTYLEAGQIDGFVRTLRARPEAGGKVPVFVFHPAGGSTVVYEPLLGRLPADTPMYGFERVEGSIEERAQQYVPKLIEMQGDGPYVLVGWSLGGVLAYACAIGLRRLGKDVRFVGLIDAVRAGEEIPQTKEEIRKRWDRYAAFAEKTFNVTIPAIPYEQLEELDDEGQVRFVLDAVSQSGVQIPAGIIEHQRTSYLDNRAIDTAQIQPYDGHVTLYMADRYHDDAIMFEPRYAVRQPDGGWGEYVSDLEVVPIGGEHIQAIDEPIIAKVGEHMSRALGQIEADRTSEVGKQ
UniProt A4I591, 1-473: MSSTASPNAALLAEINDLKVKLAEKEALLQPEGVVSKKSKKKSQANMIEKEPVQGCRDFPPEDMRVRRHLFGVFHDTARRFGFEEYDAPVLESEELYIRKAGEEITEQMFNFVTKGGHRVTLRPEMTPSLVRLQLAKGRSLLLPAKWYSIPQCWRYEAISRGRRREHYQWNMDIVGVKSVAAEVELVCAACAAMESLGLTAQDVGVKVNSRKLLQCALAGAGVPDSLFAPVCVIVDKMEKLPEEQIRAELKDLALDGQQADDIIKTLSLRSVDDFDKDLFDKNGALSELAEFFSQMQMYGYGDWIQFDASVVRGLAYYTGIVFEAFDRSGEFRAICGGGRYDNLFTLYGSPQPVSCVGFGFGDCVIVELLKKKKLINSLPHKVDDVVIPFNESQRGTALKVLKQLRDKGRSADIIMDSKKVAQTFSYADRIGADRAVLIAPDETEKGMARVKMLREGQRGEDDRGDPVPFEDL
UniProt P9WNZ1, whole entry: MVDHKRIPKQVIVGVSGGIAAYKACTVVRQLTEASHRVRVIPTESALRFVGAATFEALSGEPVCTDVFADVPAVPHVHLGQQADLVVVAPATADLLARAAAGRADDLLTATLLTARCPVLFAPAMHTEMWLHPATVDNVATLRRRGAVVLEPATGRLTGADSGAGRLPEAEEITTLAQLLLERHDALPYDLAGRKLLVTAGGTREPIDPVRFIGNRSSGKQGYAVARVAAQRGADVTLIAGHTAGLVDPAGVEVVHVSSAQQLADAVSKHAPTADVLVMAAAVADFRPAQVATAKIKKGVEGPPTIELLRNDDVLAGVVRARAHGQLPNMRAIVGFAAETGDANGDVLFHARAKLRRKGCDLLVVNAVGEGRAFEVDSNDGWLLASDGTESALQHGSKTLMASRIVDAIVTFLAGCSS

From ChEMBL document CHEMBL3988442, “University of Dundee, Small-Polar-MMV Screening Library” (2021).

Pks13 thioesterase: 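Enzyme assay of the thioesterase domain of polyketide synthase 13; the read-out is not stated. Target: Polyketide synthase Pks13, Mycobacterium tuberculosis (UniProt I6X8D2). Concentration: 30 µM. The record gives no direction; the compounds picked for IC50 retests had high values, so higher reads as stronger inhibition. About 67,000 compounds were tested under these conditions; 0.46% (about 300) showed 50% or more at least once.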
LiHisRS: 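Enzyme assay of histidyl-tRNA synthetase; the read-out is not stated. Target: Histidine-tRNA ligase, Leishmania infantum (UniProt A4I591). Compounds at 30 µM. Direction is inferred from retests: higher values go with stronger inhibition. The assay is labelled LdHisRS but filed under L. infantum. Size under these conditions: about 69,000 compounds, about 410 of them at 50% or above in at least one test.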
CoaBC: 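Enzyme assay of CoaBC with a phosphate dye (Biomol Green) read at 650 nm. Target: Coenzyme A biosynthesis protein CoaBC, Mycobacterium tuberculosis (UniProt P9WNZ1). Compounds at 30 µM. Higher reads as stronger inhibition, judged from the few compounds that gave an IC50. Most strong results did not repeat in a second test. About 67,000 compounds were tested under these conditions; 0.06% (about 40) showed 50% or more at least once.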

Values are the deposited “Percent Effect”, in %.
How 0% and 100% were set is not recorded. Most values in the screen are low, and negative values occur.
This is an unselected part of the compounds tested.
A dash means the value is not listed here; it may have been measured.

SMILES | Pks13 thioesterase | LiHisRS | CoaBC
N#Cc1cccnc1N1CCCC(CO)(Cc2ccccc2F)C1 (stereo not shown) | -18.01% | -15.15% | 10.85%
CS(=O)(=O)N1CC2(CCN(C(=O)c3ccncc3)CC2)c2ccccc21 | -22.4% | 15.38% | 7.079%
CC(=O)Nc1ccc2nc(CN(C)Cc3noc(C)n3)ccc2c1 | -1.823% | 18.37% | 5.455%
COCC1CC2(CCN(c3cc(OC)ncn3)CC2)CN1C(C)C (stereo not shown) | -2.733% | 15.84% | 5.322%
CC(=O)NCCNC(=O)C(c1ccccc1C)N(C)C (stereo not shown) | -0.6865% | -7.692% | 4.481%
CC(=O)N(Cc1ncc(C)o1)C1CCN(CCc2cnn(C)c2)C1 (stereo not shown) | -14.55% | 8.621% | 3.133%
CCc1nc(CN2CCCN(C(=O)c3ccnc(C)n3)CC2)cs1 | -15.56% | 14.68% | 7.347%
Cc1ccc(C(C)NC(=O)N2CCNC(=O)CC2)cc1F (stereo not shown) | -8.355% | 12.5% | 1.392%
CC(C)[C@H](C)NC1CCN(c2ccc(-c3cscn3)cc2)CC1 | -8.427% | 12.77% | 0.4963%
COc1ccc(-c2c(C)nn3c(=N)c(C#N)n[nH]c23)cc1 | 21.42% | 17.39% | -3.767%
COCC(C)(O)CNC(=O)c1cc(-c2cc(OC)ccc2OC)nn1C (stereo not shown) | -18.98% | 14.67% | 6.561%
CCCNC(=O)COc1cccc(-c2nc(C(C)C)no2)c1 | -18.01% | 12.33% | -2.24%
COc1ccc(CCc2nnc(NC(=O)C3CC34CCC4)s2)cc1OC (stereo not shown) | -17.89% | 11.27% | 2.713%
Cc1nn(C)c2ncnc(N3CCCC(OCc4cccnc4)C3)c12 (stereo not shown) | -33.04% | 11.43% | 2.376%
CCN(CC(=O)NC(C)C)C(=O)c1ccc(-c2ccsc2)nc1C | -7.826% | 8.642% | 2.551%
CCn1nc2c(cc1=O)CN(Cc1nc(C)c3ccccc3n1)CC2 | 6.314% | 41.18% | 1.015%
O=C(C1CC1)N1CCN(Cc2ccncc2)c2ncccc2C1 | -13.46% | 9.722% | 1.11%
CCn1cc(C(=O)NCc2csc(Br)c2)cn1 | -13.21% | 5.405% | 5.222%
Cc1nc(C2CCCN2Cc2nnc(Cc3ccccc3)o2)no1 (stereo not shown) | -6.982% | 14.88% | 11.02%
CN(Cc1ccco1)C[C@H]1OC[C@@H]2CCN(Cc3ccsc3)C[C@@H]21 | - | 4.11% | -2.773%
Cc1nc(C)n(C2CCCN(C(=O)CCOC(C)C)C2)n1 (stereo not shown) | -8.441% | 8.696% | 3.226%
COc1ccc(C(=O)Nc2ccc3c(c2)C(=O)NC3)cc1Br | -34.02% | 21.52% | -1.394%
COc1ccc(Cl)cc1S(=O)(=O)N(C)CC(N)=O | 3.009% | 4.918% | -5.144%
CN(C)CCN1CC2(CCC1=O)CCN(C(=O)c1ccn(C)n1)CC2 | -40.66% | 14.67% | 7.438%
COc1cc(C)sc1C(=O)NCCC(=O)N(C)Cc1ccccc1 | -41.82% | 16.88% | -1.899%
FC(F)(F)c1cc(NCCCn2cccn2)nc(-c2cccnc2)n1 | -11.94% | 14.91% | 11.2%
Cc1cc(C)n(-c2nc(C(=O)NCCS(=O)(=O)N3CCCCC3)cs2)n1 | 16% | 5.714% | 4.126%
CC(O)CN1CCC(CNCc2cccc(Br)c2)CC1 (stereo not shown) | -7.951% | 9.524% | 1.542%
CCSCCC(=O)NS(=O)(=O)c1ccc2c(c1)OCCO2 | -13.2% | 6.383% | 0.7772%
Cc1nc(N2CCCC2)nc2c1CCN(Cc1ccco1)CC2 | - | 20.75% | 6.726%
CC(C)(C(=O)NCC1CCN(Cc2ncc[nH]2)C1)c1ccccc1 (stereo not shown) | -6.579% | 11.48% | 1.316%
CCn1ccnc1CN1CCN(CCOc2ccc(C#N)cc2)CC1 | -7.074% | 14.55% | 3.827%
CCOC(=O)c1coc(N2CCN(Cc3ccc(C)cc3)C(=O)C2)n1 | 9.853% | 8.73% | 2.703%
COCc1noc(Cn2ccc3ncccc3c2=O)n1 | -23.46% | 11.48% | 3.581%
CCc1noc(CCCC(=O)Nc2cc(C(F)(F)F)c[nH]c2=O)n1 | -9.609% | 19.35% | 2.091%
CC(=O)Nc1ncc(S(=O)(=O)N2CCN(C3CCCCC3)CC2)s1 | -23.41% | 12.9% | -2.211%
COc1ccc(CN2CC[C@H]3[C@H]2CCN3C(=O)c2cnn(C)c2)cc1 | -21.3% | 6.015% | 8.483%
O=C1C[C@@H]2CCN(Cc3ccccc3)C[C@@H]2CCN1C1CCCCC1 | -8.833% | 30.56% | -5.643%
Cc1cc(C)nc(N2CCC(c3c(C(N)=O)sc4ccccc34)C2)n1 (stereo not shown) | 10.91% | 17.02% | 13.37%
Cn1nc(C(=O)NC2CCCC2)cc1NC(=O)C1CC1 | -7.3% | 2.941% | 2.444%
COc1ncccc1CNCc1c(C)nn(C)c1N(C)C | -18.37% | 14.04% | -6.335%
Cc1cccnc1CSCCCNS(C)(=O)=O | -6.078% | -4.225% | -
CCn1ccnc1-c1nccn1-c1ccccc1CN1CCOCC1 | -22.46% | 15.15% | 2.415%
COCC1CN(Cc2csc(C)n2)Cc2nccn2C1 (stereo not shown) | -9.57% | 16.22% | -15.13%
Nc1ncnc2nc(C3CCN(C(=O)Cc4ccc(F)cc4)C3)ccc12 (stereo not shown) | 1.124% | 11.51% | 1.675%
COc1ccc(CN2C[C@H](OCC3CCOCC3)[C@H]3COC[C@H]32)cc1 | -3.345% | 13.33% | 0.6452%
Cc1cnn(CCC(=O)N2CCC(Nc3cccnn3)CC2)c1 | -13.47% | -14.29% | -0.5931%
CC1(c2ncc(CN(CC(=O)O)Cc3ccccc3)cn2)CCCCO1 (stereo not shown) | -5.579% | 8.392% | 7.022%

Some entries from above, unchanged:

SMILES,Pks13 thioesterase,LiHisRS,CoaBC
Cn1nc(C(=O)NC2CCCC2)cc1NC(=O)C1CC1,-7.3%,2.941%,2.444%
Cc1cc(C)nc(N2CCC(c3c(C(N)=O)sc4ccccc34)C2)n1 (stereo not shown),10.91%,17.02%,13.37%
CC(=O)N(Cc1ncc(C)o1)C1CCN(CCc2cnn(C)c2)C1 (stereo not shown),-14.55%,8.621%,3.133%
CCc1nc(CN2CCCN(C(=O)c3ccnc(C)n3)CC2)cs1,-15.56%,14.68%,7.347%